The list does not hold the whole screen: it gathers tests that were run many times, whatever their T/C, doses with no T/C, and many T/C values between a quarter and a half above the control. Further doses and runs are listed elsewhere. T/C gives the treated animals as a percentage of the vehicle group. Some doses have a count of surviving animals in place of a T/C: the source files T/C as zero there, which appears to mark a toxic dose or a test without result, not a measured value. Some doses without a T/C left all or most animals alive at the check, yet need not have been tolerated: the source hardly ever lists a survival T/C far under the control, and the zero likely stands for such cases as well. Survivors were counted at the toxicity check, usually on the fifth day, unless a day is given; later deaths do not show. Schedules are NCI's codes, taken here to give the interval after Q, in days (D) or hours (H), and the number of doses after X. Some entries hold several experiments; their values stand side by side, smallest first. Some schedules carry Z or #; the key to these is not given. For survival time, this PubChem deposit counts one and a half times the control or more as active, and values a quarter to a half above the control carry no call in these data; other NCI protocols may use other cut-offs.
System: L1210 leukemia ip in BDF1 mice, survival T/C
Assay: NCI In Vivo Anticancer Drug Screen. Data for tumor model L1210 Leukemia (intraperitoneal) in B6D2F1 (BDF1) mice
Conditions: T/C endpoint: mean survival time, higher T/C = longer survival
[1] = dose: 100.0 mg/kg/injection, schedule: Q04DX002 (ip), vehicle: saline
[2] = dose: 200.0 mg/kg/injection, schedule: Q04DX002 (ip), vehicle: saline
[3] = dose: 400.0 mg/kg/injection, schedule: Q04DX002 (ip), vehicle: saline
[4] = dose: 400.0 mg/kg/injection, schedule: Q04DX003 (ip), vehicle: saline
[5] = dose: 100.0 mg/kg/injection, schedule: Q04DX003 (ip), vehicle: Klucel (hydroxypropylcellulose) (HPC)
[6] = dose: 200.0 mg/kg/injection, schedule: Q04DX003 (ip), vehicle: Klucel (hydroxypropylcellulose) (HPC)
[7] = dose: 400.0 mg/kg/injection, schedule: Q04DX003 (ip), vehicle: Klucel (hydroxypropylcellulose) (HPC)
[8] = dose: 400.0 mg/kg/injection, schedule: Q01DX009 (ip), vehicle: saline with Tween-80
[9] = dose: 400.0 mg/kg/injection, schedule: Q01DX001 (ip), vehicle: saline
[10] = dose: 400.0 mg/kg/injection, schedule: Q01DX009 (ip), vehicle: Klucel (hydroxypropylcellulose) (HPC)

CC1N2CC12c1ccccc1 (stereo not drawn)
survivor count [1]: 0 of 3 | survivor count [2]: 0 of 3 | survivor count [3]: 0 of 3

OC(CNc1ccccc1)CN1CCCC1 (stereo not drawn)
survivor count [4]: 2 of 6

O=C1C2C3CCC4C5C3C1C5S(=O)(=O)C42 (stereo not drawn)
survivor count (dose: 15.0 mg/kg/injection, schedule: Q01DX001 (ip), vehicle: carboxymethylcellulose (CMC)): 0 of 6 | survivor count (dose: 30.0 mg/kg/injection, schedule: Q01DX001 (ip), vehicle: carboxymethylcellulose (CMC)): 0 of 6 | survivor count (dose: 60.0 mg/kg/injection, schedule: Q01DX001 (ip), vehicle: carboxymethylcellulose (CMC)): 0 of 6 | survivor count (dose: 75.0 mg/kg/injection, schedule: Q01DX001 (ip), vehicle: carboxymethylcellulose (CMC)): 0 of 6 | survivor count (dose: 150.0 mg/kg/injection, schedule: Q01DX001 (ip), vehicle: carboxymethylcellulose (CMC)): 0 of 6 | survivor count (dose: 300.0 mg/kg/injection, schedule: Q01DX001 (ip), vehicle: carboxymethylcellulose (CMC)): 0 of 6

C/C(=N\N=C(N)N)c1ccccc1
survivor count (dose: 60.0 mg/kg/injection, schedule: Q01DX Z (oral), vehicle: carboxymethylcellulose (CMC)): 3 of 6 | survivor count (dose: 120.0 mg/kg/injection, schedule: Q01DX Z (oral), vehicle: carboxymethylcellulose (CMC)): 0 of 6

CC1=C[S+](c2ccccc2)c2cccc3cc4ccccc4c1c23 (stereo not drawn)
survivor count (dose: 5.0 mg/kg/injection, schedule: Q01DX009 (ip), vehicle: saline with Tween-80): 1 of 6 | survivor count (dose: 10.0 mg/kg/injection, schedule: Q01DX009 (ip), vehicle: saline with Tween-80): 2 of 6

CCOC(=O)Nc1cc([N+](C)(C)C)ccc1OCCOc1ccc([N+](C)(C)C)cc1
survivor count [5]: 0 of 6 | survivor count [6]: 0 of 6 | survivor count [7]: 0 of 6

CC(=O)Oc1ccccc1C1OC(=O)c2ccccc2N1C(C)=O (stereo not drawn)
survivor count [8]: 3 of 3

CC1OC1C(=O)Sc1ccccc1 (stereo not drawn)
survivor count [6]: 4 of 6 | survivor count [7]: 0 of 6

Cc1ccc(Nc2c3ccccc3nc3ccccc23)c(C)c1
survivor count [7]: 0 of 6

Cc1cc(CSC2=NCCCN2)c(CSC2=NCCCN2)cc1C
survivor count (dose: 25.0 mg/kg/injection, schedule: Q04DX002 (ip), vehicle: saline): 1 of 3 | survivor count (dose: 50.0 mg/kg/injection, schedule: Q01DX001 (ip), vehicle: saline): 2 of 6 | survivor count (dose: 50.0 mg/kg/injection, schedule: Q04DX002 (ip), vehicle: saline): 0 of 3 and 0 of 6 | survivor count (dose: 50.0 mg/kg/injection, schedule: Q04DX003 (ip), vehicle: saline): 0 of 6 | survivor count (dose: 100.0 mg/kg/injection, schedule: Q01DX001 (ip), vehicle: saline): 2 of 6 | survivor count (dose: 100.0 mg/kg/injection, schedule: Q04DX002 (ip), vehicle: carboxymethylcellulose (CMC)): 0 of 3 and 0 of 6 | survivor count [1]: 0 of 3 and 1 of 6 | survivor count (dose: 100.0 mg/kg/injection, schedule: Q04DX003 (ip), vehicle: saline): 0 of 6 | survivor count (dose: 200.0 mg/kg/injection, schedule: Q01DX001 (ip), vehicle: saline): 0 of 6 | survivor count (dose: 200.0 mg/kg/injection, schedule: Q04DX002 (ip), vehicle: carboxymethylcellulose (CMC)): 0 of 3 and 0 of 6 | survivor count (dose: 200.0 mg/kg/injection, schedule: Q04DX003 (ip), vehicle: saline): 0 of 6 | survivor count [9]: 0 of 6 | survivor count (dose: 400.0 mg/kg/injection, schedule: Q04DX002 (ip), vehicle: carboxymethylcellulose (CMC)): 0 of 3 and 0 of 6 | survivor count [4]: 0 of 6

CN=C(N)Nc1ccc(C(=O)Oc2ccc([N+](=O)[O-])cc2)cc1
survivor count (dose: 100.0 mg/kg/injection, schedule: Q01DX009 (ip), vehicle: water): 5 of 6 | survivor count (dose: 200.0 mg/kg/injection, schedule: Q01DX009 (ip), vehicle: water): 2 of 6 | survivor count (dose: 400.0 mg/kg/injection, schedule: Q01DX009 (ip), vehicle: water): 0 of 6

O=C(CCl)N(O)c1ccccc1OCc1ccccc1
survivor count (dose: 400.0 mg/kg/injection, schedule: Q04DX003 (ip), vehicle: carboxymethylcellulose (CMC)): 1 of 6

N=C(N)c1nn(C2OC(CO)C(O)C2O)c2ncnc(N)c12 (stereo not drawn)
T/C (dose: 25.0 mg/kg/injection, schedule: Q01DX009 (ip), vehicle: Klucel (hydroxypropylcellulose) (HPC)): 140 % of control | survivor count (dose: 50.0 mg/kg/injection, schedule: Q01DX009 (ip), vehicle: Klucel (hydroxypropylcellulose) (HPC)): 3 of 6 | survivor count (dose: 100.0 mg/kg/injection, schedule: Q01DX005 (ip), vehicle: saline): 1 of 6 | survivor count (dose: 200.0 mg/kg/injection, schedule: Q01DX005 (ip), vehicle: saline): 0 of 6

O=C(O)C1=CCCc2ccc3ccccc3c21
survivor count [10]: 4 of 6

O=[N+]([O-])c1ccc(S(=O)(=O)Oc2ccccc2)cc1
survivor count [7]: 3 of 6

OC(/C=C/C(O)c1ccccc1)c1ccccc1 (stereo not drawn)
survivor count [5]: 1 of 6 | survivor count [6]: 0 of 6 | survivor count [7]: 0 of 6

O=[N+]([O-])c1ccc(Cc2ccccn2)cc1
survivor count [10]: 3 of 6

COc1ccc(N(C)CC(O)CN)cc1 (stereo not drawn)
survivor count [9]: 0 of 6

N/C(=N/N=C/c1ccc(N(CCCl)CCCl)cc1)N[N+](=O)[O-]
survivor count (dose: 60.0 mg/kg/injection, schedule: Q01DX Z (oral), vehicle: methylcellulose (MC)): 3 of 6 | survivor count (dose: 120.0 mg/kg/injection, schedule: Q01DX Z (oral), vehicle: methylcellulose (MC)): 1 of 6 | survivor count (dose: 240.0 mg/kg/injection, schedule: Q01DX Z (oral), vehicle: methylcellulose (MC)): 2 of 6 | survivor count (dose: 480.0 mg/kg/injection, schedule: Q01DX Z (oral), vehicle: methylcellulose (MC)): 2 of 6

CCOP(=S)(N/N=C1\CC2CCC1C2)OCC (stereo not drawn)
survivor count (dose: 200.0 mg/kg/injection, schedule: Q01DX001 (ip), vehicle: other): 2 of 4 | survivor count (dose: 400.0 mg/kg/injection, schedule: Q01DX001 (ip), vehicle: other): 0 of 4

CCCSCCCCSCCC
survivor count (dose: 100.0 mg/kg/injection, schedule: Q04DX003 (ip), vehicle: saline with Tween-80): 6 of 6

NCCCN1CCN(CCCN)CC1
T/C [1]: 96, 98, 101 % of control | survivor count [1]: 3 of 3 | T/C [2]: 91, 92, 98, 108 % of control | T/C [3]: 92, 100, 107 % of control | survivor count [3]: 3 of 3

COc1cccc(CN(C)C)c1C(O)c1ccccc1 (stereo not drawn)
survivor count (dose: 400.0 mg/kg/injection, schedule: Q01DX001 (ip), vehicle: carboxymethylcellulose (CMC)): 2 of 4

CCC(=O)C1CCCCN1 (stereo not drawn)
survivor count [1]: 0 of 3 | survivor count [2]: 0 of 3 | survivor count [3]: 0 of 3

NC1=NNC(N)=NN1
survivor count (dose: 200.0 mg/kg/injection, schedule: Q01DX009 (ip), vehicle: saline): 0 of 3

CC12C=CC(CC1)C2O (stereo not drawn)
survivor count [8]: 4 of 6

— PubChem BioAssay AID248 (DTP/NCI, 2004)
